Measured values: US9108933B2, “Method for treating proliferative disorders associated with mutations in c-Met” (Synta Pharmaceuticals Corp., priority 2007, dated 2015)
At least one compound was matched to its structure with a doubt left.

Key:
Her2 = assay: Degradation of Her2 in BT-474 cells, Western blot (Method 1); type: cell-based, human; conditions: overnight
Experimental: Human high-Her2 breast carcinoma BT474 (HTB-20), SK-BR-3 (HTB-30) and MCF-7 breast carcinoma (HTB-22) from American Type Culture Collection, VA, USA were grown in Dulbecco's modified Eagle's medium with 4 mM L-glutamine and antibiotics (100 IU/ml penicillin and 100 ug/ml streptomycine; GibcoBRL). To obtain exponential cell growth, cells were trypsinized, counted and seeded at a cell density of 0.5×10^6 cells/ml regularly, every 3 days. All experiments were performed on day 1 after cell passage.
After treatment, each cytoplasmic sample was prepared from 1×10^6 cells by incubation of cell lysis buffer (#9803, cell Signaling Technology) on ice for 10 minutes. The resulting supernatant used as the cytosol fractions were dissolved with sample buffer for SDS-PAGE and run on a SDS-PAGE gel, blotted onto a nitrocellulose membrane by using semi-dry transfer. Non-specific binding to nitrocellulose was blocked with 5% skim milk in TBS with 0.5% Tween at room temperature for 1 hour, then probed with anti-Her2/ErB2 mAb (rabbit IgG, #2242, Cell Signaling) and anti-Tubulin (T9026, Sigma) as housekeeping control protein. HRP-conjugated goat antirabbit IgG (H+L) and HRP-conjugated horse anti-mouse IgG (H+L) were used as secondary Ab (#7074, #7076, Cell Signaling) and LumiGLO reagent, 20× Peroxide (#7003, Cell Signaling) was used for visualization.

[1] = test system: human tumor cell line MDA-MB-435S; assay: MDA-MB-435S nude mouse xenograft model; type: in vivo; conditions: 300 mg/kg body weight, IP, 5 days per week for 3 weeks
Experimental: FBS was obtained from Sigma-Aldrich Corp. (St. Louis, Mo., USA), and all other reagents were obtained from Invitrogen Corp. (Carlsbad, Calif., USA). Approximately 4-5×10(6) cells that had been cryopreserved in liquid nitrogen were rapidly thawed at 37° C. and transferred to a 175 cm^2 tissue culture flask containing 50 ml of growth media and then incubated at 37° C. in a 5% CO2 incubator. The growth media was replaced every 2-3 days until the flask became 90% confluent, typically in 5-7 days. To passage and expand the cell line, a 90% confluent flask was washed with 10 ml of room temperature phosphate buffered saline (PBS) and the cells were disassociated by adding 5 ml 1× Trypsin-EDTA (Invitrogen) and incubating at 37° C. until the cells detached from the surface of the flask. […] The supernatant was aspirated and the cell pellet was resuspended in 10 ml of growth media and the cell number determined using a hemocytometer. […]
Six to eight week old, female Crl:CD-1-nuBR (nude) mice were obtained from Charles River Laboratories (Wilmington, Mass., USA). […] Tumor volumes (V) were calculated by caliper measurement of the width (W), length (L) and thickness (T) of tumors using the following formula: V=[…]×(L×W×T) Animals were randomized into treatment groups so that the average tumor volumes of each group were similar at the start of dosing. […]

CCc1cc(-c2nnc(S)n2-c2cccc3ccccc23)c(O)cc1O [Compound 49, 3-(2,4-Dihydroxy-5-ethyl-phenyl)-4-(naphthalen-1-yl)-5-mercapto-triazole]
degradation of Her2 (Her2; 0.5 μM): partial degradated
degradation of Her2 (Her2; 2 μM): complete degradation
degradation of Her2 (Her2; 5 μM): complete degradation
growth rate of MDA-MB-435S cells in nude mice [1]: decreased the growth rate of MDA-MB-435S cells in nude mice to a greater extent than did a dose of 100 mg/kg body weight of the Hsp90 inhibitor 17-AAG
